{"sequences": {"note": "Sequences of proteins named here, by UniProt entry; tags and fusion partners are left off. Residues count along the entry.", "UniProt P02769, residues 25-607": "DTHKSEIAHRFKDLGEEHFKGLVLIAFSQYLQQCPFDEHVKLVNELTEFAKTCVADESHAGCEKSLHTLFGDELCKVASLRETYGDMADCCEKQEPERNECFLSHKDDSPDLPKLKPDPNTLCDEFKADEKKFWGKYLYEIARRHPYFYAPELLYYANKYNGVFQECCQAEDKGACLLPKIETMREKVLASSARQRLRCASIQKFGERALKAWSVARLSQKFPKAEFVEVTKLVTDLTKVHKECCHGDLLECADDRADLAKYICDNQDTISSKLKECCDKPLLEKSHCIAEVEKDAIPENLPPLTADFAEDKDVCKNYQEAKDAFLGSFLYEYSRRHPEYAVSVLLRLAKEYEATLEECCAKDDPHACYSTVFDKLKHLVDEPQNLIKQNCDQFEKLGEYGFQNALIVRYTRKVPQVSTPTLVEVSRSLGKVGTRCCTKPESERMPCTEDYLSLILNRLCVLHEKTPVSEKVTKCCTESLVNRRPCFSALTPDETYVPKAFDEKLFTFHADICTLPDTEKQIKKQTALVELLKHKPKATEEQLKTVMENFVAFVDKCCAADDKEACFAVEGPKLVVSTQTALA"}, "source": "paper PMC2824085", "biological_target": "T1, trimeric extracellular domain (ECD) of rat macrophage galactose lectin (MGL) (rat) (UniProt P49301)", "T1 sequence": "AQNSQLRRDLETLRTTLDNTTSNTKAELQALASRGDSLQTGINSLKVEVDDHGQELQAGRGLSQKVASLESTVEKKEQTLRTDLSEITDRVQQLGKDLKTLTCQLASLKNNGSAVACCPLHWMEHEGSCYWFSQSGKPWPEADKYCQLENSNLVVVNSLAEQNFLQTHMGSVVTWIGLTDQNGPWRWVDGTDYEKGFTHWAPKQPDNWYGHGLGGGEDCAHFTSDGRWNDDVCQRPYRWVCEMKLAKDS", "test": "radioligand binding; competition: CRD or ECD of MGL coated on polystyrene wells, 125I-labeled Gal-BSA as reporter ligand, competing ligand titrated; KI = concentration for 50% inhibition; both purified", "note": "No constants are given. Whether binding was seen depends on the method and setting. Some entries that bind do so weakly or less than the wild type.", "data": [{"substance": "125I-labeled Gal-BSA (from UniProt P02769 25-607)", "values": [{"measurement": "binding", "value": "binds"}]}]}
